Reference: patent US6087334A (Amylin Pharmaceuticals, Inc., priority 1998, dated 2000)
Some peptides are written in HELM: one residue between dots, names in brackets for other building blocks, links after the first $. One purity is given for all peptides; the source may state it once.

Assay: general procedure: Fmoc solid-phase peptide synthesis; 4-(2'-4'-dimethoxyphenyl)-Fmoc aminomethyl phenoxy acetamide norleucine MBHA resin (Novabiochem, 0.55 mmole/g); HATU / diisopropylethylamine
Conditions: whole synthesis

Substance	crude purity (method not given)	difficulty met
PEPTIDE1{K.C.N.T.A.T.C.A.T.A.R.L.A.A.F.L.A.R.S.S.G.Y.[am]}$PEPTIDE1,PEPTIDE1,2:R3-7:R3$$$V2.0	about 75%	at some positions coupling was less efficient than expected and double couplings were required
PEPTIDE1{L.S.T.A.A.T.A.R.L.A.A.F.L.A.R.S.[am]}$$$$V2.0	about 75%	at some positions coupling was less efficient than expected and double couplings were required
PEPTIDE1{[isocaproyl].L.S.T.A.A.T.A.R.L.A.A.F.L.A.R.S.[am]}$$$$V2.0	about 75%	at some positions coupling was less efficient than expected and double couplings were required
